Results are given in words; binding and its absence hold for the method and conditions named. Binding seen in cells or lysates may run through a third protein. Some binding calls cover weakened binding; strength is not graded here.
B1: CD14 (receptor, UniProt P08571 20-345)
chain: TTPEPCELDDEDFRCVCNFSEPQPDWSEAFQCVSAVEVEIHAGGLNLEPFLKRVDADADPRQYADTVKALRVRRLTVGAAQVPAQLLVGALRVLAYSRLKELTLEDLKITGTMPPLPLEATGLALSSLRLRNVSWATGRSWLAELQQWLKPGLKVLSIAQAHSPAFSCEQVRAFPALTSLDLSDNPGLGERGLMAALCPHKFPAIQNLALRNTGMETPTGVCAALAAAGVQPHSLDLSHNSLRATVNPSAPRCMWSSALNSLNLSFAGLEQVPKGLPAKLRVLDLSCNRLNRAPQPDELPEVDNLTLDGNPFLVPGTALPHEGSMN

Amino acid sequences for entries named in this document (tags omitted). Residues count along the entry.
UniProt Q08722, residues 19-323: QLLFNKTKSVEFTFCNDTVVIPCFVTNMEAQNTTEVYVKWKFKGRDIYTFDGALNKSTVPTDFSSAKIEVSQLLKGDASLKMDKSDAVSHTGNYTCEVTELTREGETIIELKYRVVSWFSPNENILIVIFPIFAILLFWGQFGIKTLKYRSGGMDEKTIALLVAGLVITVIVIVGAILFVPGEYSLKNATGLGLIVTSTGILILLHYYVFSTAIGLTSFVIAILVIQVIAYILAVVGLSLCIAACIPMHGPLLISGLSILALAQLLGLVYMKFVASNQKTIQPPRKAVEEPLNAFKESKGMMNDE
UniProt P07996, residues 19-1170: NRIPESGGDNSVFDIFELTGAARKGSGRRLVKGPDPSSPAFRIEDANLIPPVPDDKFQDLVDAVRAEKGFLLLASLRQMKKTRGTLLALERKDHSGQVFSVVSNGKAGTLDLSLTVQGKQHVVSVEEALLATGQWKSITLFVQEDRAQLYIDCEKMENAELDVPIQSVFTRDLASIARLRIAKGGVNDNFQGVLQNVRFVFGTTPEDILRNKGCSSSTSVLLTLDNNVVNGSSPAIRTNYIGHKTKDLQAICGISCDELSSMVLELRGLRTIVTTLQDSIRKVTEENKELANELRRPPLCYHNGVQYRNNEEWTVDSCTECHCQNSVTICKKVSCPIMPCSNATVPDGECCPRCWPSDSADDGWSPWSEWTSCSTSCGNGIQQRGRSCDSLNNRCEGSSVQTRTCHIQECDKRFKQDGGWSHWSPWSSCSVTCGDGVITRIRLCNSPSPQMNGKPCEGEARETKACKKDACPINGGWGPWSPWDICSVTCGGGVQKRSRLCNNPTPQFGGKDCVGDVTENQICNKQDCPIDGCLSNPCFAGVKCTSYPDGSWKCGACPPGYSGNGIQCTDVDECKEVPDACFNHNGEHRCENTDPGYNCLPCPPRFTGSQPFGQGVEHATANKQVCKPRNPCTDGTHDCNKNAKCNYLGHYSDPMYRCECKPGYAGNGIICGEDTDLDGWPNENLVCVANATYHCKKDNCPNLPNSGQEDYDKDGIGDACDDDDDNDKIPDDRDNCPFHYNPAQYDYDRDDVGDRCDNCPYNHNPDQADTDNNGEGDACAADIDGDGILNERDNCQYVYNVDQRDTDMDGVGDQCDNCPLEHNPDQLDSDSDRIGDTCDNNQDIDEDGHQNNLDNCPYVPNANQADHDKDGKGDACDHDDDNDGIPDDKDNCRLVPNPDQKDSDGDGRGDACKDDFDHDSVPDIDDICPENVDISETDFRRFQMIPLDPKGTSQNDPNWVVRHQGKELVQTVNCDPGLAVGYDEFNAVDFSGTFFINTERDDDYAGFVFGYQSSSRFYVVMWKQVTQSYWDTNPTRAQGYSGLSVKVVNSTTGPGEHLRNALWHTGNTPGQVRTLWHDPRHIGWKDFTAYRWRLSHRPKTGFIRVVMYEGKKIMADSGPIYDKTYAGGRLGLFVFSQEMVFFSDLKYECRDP

Key:
[1] = target: CD47 (human (endogenous in THP-1 and primary human macrophages)) (UniProt Q08722); experiment: co-IP; cells incubated 15 min with purified TSP1 (0.1-100 ng/ml) or recombinant TSP1 domains before lysis; read-out is the loss of CD14 from the anti-CD47 (B6H12) immunoprecipitate; only the binder purified
[2] = target: CD47 (human (endogenous in THP-1 and primary human macrophages)) (UniProt Q08722); experiment: co-IP; lysates (NP-40 buffer: 50 mM Tris pH 8.0, 150 mM NaCl, 1% NP-40) of differentiated THP-1 cells and of primary human monocyte-derived macrophages; precipitation with anti-CD47 B6H12 or isotype control and Protein G beads at 4 °C; blot for CD14; cells untreated or treated 15 min with TSP1 or its recombinant domains

| Molecule | binding [1] | binding [2] |
| --- | --- | --- |
| thrombospondin-1 (from UniProt P07996 19-1170) | binds | – |
| B1 | – | binds |

Source: paper PMC4728557
